In the series the target is T1, OmpR-N6His (Xenorhabdus nematophila YL001) (UniProt D3VF01).
T1 sequence (looked up, limits assumed): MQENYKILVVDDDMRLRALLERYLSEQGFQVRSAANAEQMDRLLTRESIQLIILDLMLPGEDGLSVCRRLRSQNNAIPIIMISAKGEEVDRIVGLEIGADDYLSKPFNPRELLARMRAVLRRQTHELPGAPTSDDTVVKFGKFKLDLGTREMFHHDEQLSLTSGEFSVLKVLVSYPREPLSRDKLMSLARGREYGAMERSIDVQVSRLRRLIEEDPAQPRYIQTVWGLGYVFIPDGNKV
As to the kind of experiment: EMSA. As to conditions: 10 mM Mg2+, EMSA: 5x buffer 250 mM Tris, 250 mM KCl, 0.5 mM DTT, 50 mM MgCl2, 25% glycerol, pH 8.0 (1x: 50 mM Tris, 50 mM KCl, 0.1 mM DTT, 10 mM MgCl2, 5% glycerol), recombinant protein, protein details: N-terminal His6 (pET28a NdeI/BamHI), probe letters rebuilt from the primers and the genome. (In general: In EMSA bound probe runs differently from free probe, usually more slowly.)

These results are taken from paper PMC12196045.

Construct, isoform or probe ends are uncertain for at least one entry. A negative result means that nothing was seen under these conditions. Protein sequences can lack the tags named with them.

With “TTGTTATTACCTCATTGGTGTTATTTAGACACTTATGTTACTGCCAGAAACAGAACACTAAAAATTTTTGGAACTATTTTCGGGTATCGCGTGTCTTATTAATTGGCGACCAGTGTTCCATTGGTAATGAATTTTATCTACCCTCAAAATGCTACAAAAGTACAAAATCAGTAACAAAGTGAAAATAGATGTTTCAAAATGTAAATAACAGGGAACTTTTTTCGTTCAATTTCTATTGAAAAATGAAAAAAGCCAACTTTCGTCGGCTTTTCAGAGGATTAAATTTAGCTTATTTATTGAGCTGATTCA (double strand) [PopnP309]”, the binding result (LPAP (lithium potassium acetyl phosphate) named in legend) is “binds”.

Regarding “TACGTCTCGTAACGCTTCATTTTTTGTGTTCTTCTTTCTTAAAACTATATTGTTTTTTATTGCACTCATTCATTTTAATCGAGAAATTATCTGTATTTATGATTGTTTATCTTTTTACTTGTATGATGCAAGTGGAAATCTATTAATTATGACGCCAACTTAATTTATATTCTAATGTCAATAAAAATCACTATATAAATATATGGGAGTAATGAGCTTTTTGTGAAAAGCAATTAACCCATAGGTTATATTGATTTTTTCTGATGTTAATGTTTTGTCGATATTTTTAATTTTAAGTTAAATGGTTATGTATTTAATCGATTTCAATATGGAACACGACAGCAAGAAAATGACAAACTTACAATATTTATAACGAAAGTATGGAAATAATTGAATTTTGCTGACTCGATTTATGAATTACTTTTTACGTGTTTTTGAAACATGGCCATTTCATTAATATAAATTCGATGTTATCGGAACAGTATTGGGCATTTTTTACGATTATTACAATGAAACTCCTTAAACCTTGATAGTGAAATTGCATCAAGCATAGGTAGTGTCTGCTCTTCACCAAAACGAG (double strand) [PxcnA580]”, the binding result (LPAP named in legend) is “no binding”.
